# From the supplement of paper PMC6411743
# ± gives the standard deviation of the averaged measurements. The list shows a part of the results, in another mix than the full data.
# Experiments:
# Assay in all cases: NP40-soluble protein abundance relative to vehicle (solubility fold change) (ratio); higher = more soluble protein in presence of AMP-PNP
# NOC4L = target: T1, NOC4L (UniProt Q9BVI4)
# T1 sequence (whole entry): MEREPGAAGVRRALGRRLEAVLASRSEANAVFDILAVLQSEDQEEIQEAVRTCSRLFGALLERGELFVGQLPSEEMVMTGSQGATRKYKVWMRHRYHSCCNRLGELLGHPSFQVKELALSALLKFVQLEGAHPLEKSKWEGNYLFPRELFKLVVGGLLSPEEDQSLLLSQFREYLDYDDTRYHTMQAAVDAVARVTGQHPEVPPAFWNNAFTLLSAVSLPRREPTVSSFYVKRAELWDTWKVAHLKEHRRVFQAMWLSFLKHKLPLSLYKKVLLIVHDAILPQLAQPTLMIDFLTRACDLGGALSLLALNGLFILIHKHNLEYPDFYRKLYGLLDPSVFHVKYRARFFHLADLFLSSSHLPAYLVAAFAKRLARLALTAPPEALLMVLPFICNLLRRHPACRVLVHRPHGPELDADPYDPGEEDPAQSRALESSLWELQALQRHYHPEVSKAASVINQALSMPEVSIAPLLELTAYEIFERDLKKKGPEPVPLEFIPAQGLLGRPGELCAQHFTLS
# Method in brief: (§1)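 Jurkat crude lysate prepared with a Dounce homogeniser was treated at eight concentrations spanning 0.1 to 10 mM, 10 min at room temperature then 3 min at 37 °C. Solubilisation with 0.8% NP40 and benzonase and ultracentrifugation preceded TMT labelling of the supernatant for LC-MS/MS. Fold change against the detergent-processed vehicle was determined per replicate from vsn-normalised intensities, across three independent experiments.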
# NUF2 = target: T2, NUF2 (UniProt Q9BZD4)
# T2 sequence (whole entry): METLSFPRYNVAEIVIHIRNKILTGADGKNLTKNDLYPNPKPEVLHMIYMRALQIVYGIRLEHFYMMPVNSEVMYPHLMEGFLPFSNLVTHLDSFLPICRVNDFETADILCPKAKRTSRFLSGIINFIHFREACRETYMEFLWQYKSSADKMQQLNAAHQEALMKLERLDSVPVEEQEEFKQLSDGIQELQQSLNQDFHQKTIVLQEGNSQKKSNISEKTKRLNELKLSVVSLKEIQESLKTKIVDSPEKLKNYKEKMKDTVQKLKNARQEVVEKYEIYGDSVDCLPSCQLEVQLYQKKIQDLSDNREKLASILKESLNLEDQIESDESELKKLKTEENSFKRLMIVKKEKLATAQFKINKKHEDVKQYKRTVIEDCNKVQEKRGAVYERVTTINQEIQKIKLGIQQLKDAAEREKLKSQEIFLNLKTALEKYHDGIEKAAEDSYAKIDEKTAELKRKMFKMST
# Method in brief: as §1
# STRBP = target: T3, STRBP (UniProt Q96SI9)
# T3 sequence (whole entry): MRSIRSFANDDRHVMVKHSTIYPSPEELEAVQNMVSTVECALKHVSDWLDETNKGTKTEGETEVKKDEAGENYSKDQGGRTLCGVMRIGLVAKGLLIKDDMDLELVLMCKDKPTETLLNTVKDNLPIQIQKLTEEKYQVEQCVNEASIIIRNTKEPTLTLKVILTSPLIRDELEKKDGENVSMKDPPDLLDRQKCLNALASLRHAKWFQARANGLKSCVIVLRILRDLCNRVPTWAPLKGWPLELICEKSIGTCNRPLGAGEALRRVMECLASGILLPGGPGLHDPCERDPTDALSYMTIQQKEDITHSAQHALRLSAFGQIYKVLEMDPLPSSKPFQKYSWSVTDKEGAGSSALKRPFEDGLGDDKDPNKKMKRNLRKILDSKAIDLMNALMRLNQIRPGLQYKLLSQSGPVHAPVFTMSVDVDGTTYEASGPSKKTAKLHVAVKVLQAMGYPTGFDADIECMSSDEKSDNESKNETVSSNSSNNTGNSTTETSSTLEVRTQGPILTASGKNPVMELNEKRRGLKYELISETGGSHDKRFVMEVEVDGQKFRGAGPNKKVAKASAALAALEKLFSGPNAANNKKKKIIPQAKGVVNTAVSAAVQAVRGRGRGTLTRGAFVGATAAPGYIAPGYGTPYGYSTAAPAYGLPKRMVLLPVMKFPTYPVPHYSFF
# Method in brief: as §1
# TMEM43 = target: T4, TMEM43 (UniProt Q9BTV4)
# T4 sequence (whole entry): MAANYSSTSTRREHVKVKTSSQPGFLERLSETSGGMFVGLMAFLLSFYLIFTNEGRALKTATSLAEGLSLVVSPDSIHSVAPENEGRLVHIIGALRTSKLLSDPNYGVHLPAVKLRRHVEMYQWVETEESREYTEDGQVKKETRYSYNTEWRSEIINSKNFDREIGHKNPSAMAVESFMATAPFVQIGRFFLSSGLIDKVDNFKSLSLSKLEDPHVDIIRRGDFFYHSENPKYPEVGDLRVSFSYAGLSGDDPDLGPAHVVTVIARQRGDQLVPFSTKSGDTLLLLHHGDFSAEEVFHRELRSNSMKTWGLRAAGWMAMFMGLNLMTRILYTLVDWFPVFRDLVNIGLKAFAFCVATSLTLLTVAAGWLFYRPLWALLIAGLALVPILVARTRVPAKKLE
# Method in brief: as §1
# TP53RK = target: T5, TP53RK (UniProt Q96S44)
# T5 sequence (whole entry): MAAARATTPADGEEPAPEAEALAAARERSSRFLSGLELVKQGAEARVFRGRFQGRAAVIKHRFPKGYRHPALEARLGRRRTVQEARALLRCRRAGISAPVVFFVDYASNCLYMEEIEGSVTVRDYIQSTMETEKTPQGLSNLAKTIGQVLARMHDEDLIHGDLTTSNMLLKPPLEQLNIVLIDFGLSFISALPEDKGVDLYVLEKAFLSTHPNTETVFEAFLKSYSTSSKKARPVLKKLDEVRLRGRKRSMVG
# Method in brief: as §1
smiles,measurement,setting,value
Nc1ncnc2c1ncn2[C@@H]1O[C@H](COP(=O)(O)OP(=O)(O)NP(=O)(O)O)[C@@H](O)[C@H]1O [adenylyl imidodiphosphate],NP40-soluble protein abundance,NOC4L; concentration: 2mM,1 ± 0.021
same,NP40-soluble protein abundance,NOC4L; concentration: 4mM,0.983 ± 0.021
same,NP40-soluble protein abundance,NOC4L; concentration: 6mM,0.99 ± 0.03
same,NP40-soluble protein abundance,NOC4L; concentration: 8mM,1.01 ± 0.035
same,NP40-soluble protein abundance,NOC4L; concentration: 10mM,0.9728 ± 0.0067
same,NP40-soluble protein abundance,NUF2; concentration: 1mM,0.996 ± 0.016
same,NP40-soluble protein abundance,NUF2; concentration: 2mM,1.04 ± 0.053
same,NP40-soluble protein abundance,NUF2; concentration: 4mM,1.01 ± 0.012
same,NP40-soluble protein abundance,NUF2; concentration: 6mM,1.05 ± 0.025
same,NP40-soluble protein abundance,NUF2; concentration: 8mM,1.005 ± 0.0076
same,NP40-soluble protein abundance,NUF2; concentration: 10mM,1.04 ± 0.032
same,NP40-soluble protein abundance,STRBP; concentration: 1mM,1.02 ± 0.043
same,NP40-soluble protein abundance,STRBP; concentration: 2mM,1.01 ± 0.066
same,NP40-soluble protein abundance,STRBP; concentration: 4mM,1.06 ± 0.059
same,NP40-soluble protein abundance,STRBP; concentration: 6mM,1.09 ± 0.042
same,NP40-soluble protein abundance,STRBP; concentration: 8mM,1.12 ± 0.064
same,NP40-soluble protein abundance,STRBP; concentration: 10mM,1.11 ± 0.073
same,NP40-soluble protein abundance,TMEM43; concentration: 1mM,0.928 ± 0.052
same,NP40-soluble protein abundance,TMEM43; concentration: 2mM,0.843 ± 0.043
same,NP40-soluble protein abundance,TMEM43; concentration: 4mM,0.887 ± 0.028
same,NP40-soluble protein abundance,TMEM43; concentration: 6mM,0.877 ± 0.04
same,NP40-soluble protein abundance,TMEM43; concentration: 8mM,0.921 ± 0.054
same,NP40-soluble protein abundance,TMEM43; concentration: 10mM,0.82 ± 0.064
same,NP40-soluble protein abundance,TP53RK; concentration: 1mM,0.93 ± 0.028
same,NP40-soluble protein abundance,TP53RK; concentration: 2mM,0.923 ± 0.064

# Shown with bars between the fields: part of the list above.
smiles | measurement | setting | value
Nc1ncnc2c1ncn2[C@@H]1O[C@H](COP(=O)(O)OP(=O)(O)NP(=O)(O)O)[C@@H](O)[C@H]1O [adenylyl imidodiphosphate] | NP40-soluble protein abundance | TMEM43; concentration: 1mM | 0.928 ± 0.052
same | NP40-soluble protein abundance | TMEM43; concentration: 2mM | 0.843 ± 0.043
same | NP40-soluble protein abundance | TMEM43; concentration: 4mM | 0.887 ± 0.028
same | NP40-soluble protein abundance | TMEM43; concentration: 6mM | 0.877 ± 0.04
same | NP40-soluble protein abundance | TMEM43; concentration: 8mM | 0.921 ± 0.054
same | NP40-soluble protein abundance | TMEM43; concentration: 10mM | 0.82 ± 0.064
same | NP40-soluble protein abundance | TP53RK; concentration: 1mM | 0.93 ± 0.028
